Three substances from article PMC4001879 can be followed below.

The chains behind the UniProt entries cited, without tags or fusion partners.
UniProt O94916: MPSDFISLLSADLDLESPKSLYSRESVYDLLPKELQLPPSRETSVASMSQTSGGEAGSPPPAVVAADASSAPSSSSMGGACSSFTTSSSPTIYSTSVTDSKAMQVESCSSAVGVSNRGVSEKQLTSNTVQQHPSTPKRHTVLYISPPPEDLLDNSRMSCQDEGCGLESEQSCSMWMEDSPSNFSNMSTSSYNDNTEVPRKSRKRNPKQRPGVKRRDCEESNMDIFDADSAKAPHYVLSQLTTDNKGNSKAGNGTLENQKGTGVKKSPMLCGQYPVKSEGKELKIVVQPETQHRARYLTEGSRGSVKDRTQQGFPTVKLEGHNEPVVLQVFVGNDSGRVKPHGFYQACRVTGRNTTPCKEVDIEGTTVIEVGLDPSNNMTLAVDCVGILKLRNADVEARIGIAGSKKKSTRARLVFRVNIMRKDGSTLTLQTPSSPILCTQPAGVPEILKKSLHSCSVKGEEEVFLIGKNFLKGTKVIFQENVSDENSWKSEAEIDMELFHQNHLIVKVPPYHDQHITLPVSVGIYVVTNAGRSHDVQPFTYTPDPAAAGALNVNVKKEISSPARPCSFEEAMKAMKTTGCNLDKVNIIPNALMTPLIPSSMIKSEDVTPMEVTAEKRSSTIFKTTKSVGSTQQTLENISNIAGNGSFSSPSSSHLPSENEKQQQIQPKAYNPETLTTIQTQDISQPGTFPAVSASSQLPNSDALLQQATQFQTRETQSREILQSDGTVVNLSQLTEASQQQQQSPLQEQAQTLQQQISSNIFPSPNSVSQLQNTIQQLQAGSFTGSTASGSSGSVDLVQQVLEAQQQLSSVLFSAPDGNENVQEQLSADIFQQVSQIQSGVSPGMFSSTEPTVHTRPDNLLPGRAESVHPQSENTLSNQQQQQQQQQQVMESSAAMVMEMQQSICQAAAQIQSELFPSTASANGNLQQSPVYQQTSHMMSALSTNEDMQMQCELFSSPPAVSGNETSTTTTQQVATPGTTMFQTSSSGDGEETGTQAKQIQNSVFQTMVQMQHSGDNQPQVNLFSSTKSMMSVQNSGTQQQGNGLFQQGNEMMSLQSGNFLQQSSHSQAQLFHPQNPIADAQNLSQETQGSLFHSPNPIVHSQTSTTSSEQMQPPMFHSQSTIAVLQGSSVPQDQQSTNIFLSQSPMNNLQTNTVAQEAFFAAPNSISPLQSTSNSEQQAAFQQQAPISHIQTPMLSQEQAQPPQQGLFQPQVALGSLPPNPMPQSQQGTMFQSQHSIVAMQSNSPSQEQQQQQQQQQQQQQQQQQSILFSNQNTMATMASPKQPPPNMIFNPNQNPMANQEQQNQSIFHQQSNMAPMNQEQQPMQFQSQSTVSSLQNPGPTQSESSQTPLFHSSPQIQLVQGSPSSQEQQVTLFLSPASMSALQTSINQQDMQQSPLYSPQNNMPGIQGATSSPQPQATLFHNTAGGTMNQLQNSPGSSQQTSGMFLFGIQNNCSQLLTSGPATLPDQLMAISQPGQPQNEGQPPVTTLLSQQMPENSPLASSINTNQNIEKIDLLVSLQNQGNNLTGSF
UniProt P62258: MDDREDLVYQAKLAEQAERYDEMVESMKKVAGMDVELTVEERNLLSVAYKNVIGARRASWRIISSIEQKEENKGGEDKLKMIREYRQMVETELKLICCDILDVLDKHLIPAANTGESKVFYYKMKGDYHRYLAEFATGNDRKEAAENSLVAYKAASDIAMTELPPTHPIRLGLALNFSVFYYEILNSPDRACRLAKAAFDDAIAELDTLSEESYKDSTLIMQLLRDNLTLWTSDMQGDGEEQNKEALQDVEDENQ
UniProt P31946: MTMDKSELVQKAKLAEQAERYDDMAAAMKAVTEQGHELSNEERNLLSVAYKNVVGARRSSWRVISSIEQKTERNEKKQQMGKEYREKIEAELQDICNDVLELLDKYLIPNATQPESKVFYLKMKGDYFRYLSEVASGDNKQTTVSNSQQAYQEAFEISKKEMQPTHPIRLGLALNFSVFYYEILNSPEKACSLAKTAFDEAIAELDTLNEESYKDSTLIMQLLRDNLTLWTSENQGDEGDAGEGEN

Results are given in words; binding and its absence hold for the method and conditions named. In cells and extracts the contact can be indirect. Some results given as binding are weak or reduced against the parent protein; the word gives no strength.

This assay addresses NFAT5-V5 (NFAT5, isoform c, NP_006590) (UniProt O94916). Kind of assay: co-IP; NFAT5-V5 immunoprecipitated with anti-V5 antibody conjugated Dynabeads from precleared extracts of transfected HEK293 cells (PhosphoSafe Extraction Reagent); cells incubated at 300 or 500 mosmol/kg (NaCl varied) for 1 h before harvest; immunoprecipitates immunoblotted. Background: In western blotting, separated proteins are transferred to a membrane and probed.
As for 14-3-3-ε (from UniProt P62258 1-255), the binding result is recorded as “no binding”.

For 14-3-3-β (from UniProt P31946 1-246), the binding result is listed as “no binding”. As for CDK5 (from UniProt Q00535 1-292), the entry is “binds”.
